Results taken from patent US20190062453A1.
These are yes or no findings as the source states them, for the method shown. Some entries that bind do so weakly or less than the wild type.

Biological target: Cynom. DR5 (ECD)-AcTev-Fc-Avi (cynomolgus)
Assay: binding ELISA

Binder	binding
DR5TAA-0005 (antibody, V domains shown) VH: QSLEESGGRLVTPGTPLTLTCTASGFSLSSAYMSWVRQAPGKGLEWIGYIYSGSGSTWYASWVKGRFTISKTSTTVDLKITSPTTEDTATYFCARGYSTMGDLWGPGTLVTVSS VL: QVLTQTPSPVSAAVGGTVTINCQASQSVYNNRLAWYQQKPGQPPKLLIYLASTLASGVPSRFKGSGSGTQFTLTISDLQCDDAATYYCAGGYSGNINAFGGGTEVVVKG	binds
DR5TAA-0006 (antibody, V domains shown) VH: QSLEESGGRLVTPGTPLTLTCTASGFSLSSNHMSWVRQAPGKGLEWIGYIYAGSGSAYYASWAKGRFTISRTSTTVDLKMTSLTTEDTATYFCAGDAGSSYWEFNLWGPGTLVTVSS VL: LVMTQTPSSTSEPVGGTVTIKCQASQSIGSSLSWYQQKPGQPPKLLIYHASTLASGVPSRFSGSRSGIQTTLTISGVQCDDAATYYCLGVADARRDDGFAFGGGTEVVVKG	binds
DR5TAA-0010 (antibody, V domains shown) VH: QSLEESGGRLVKPDETLTLTCTVSGFSLSSNAISWVRQAPGMGLEWIGIIGSSGYTYYASWAKGRFTVSKTSTTVDLEIASPTTEDTATYFCARGYSGASDYSFNLWGPGTLVTVSS VL: AYDMTQTPDSVEVAVGGTVTIKCQASQTIGDALAWYQQKPGQRPNLLIYRTSTLASGVPSRFSGSGSGTHFTLTISGVECADAATYYCQQGATYNNVLNTFGGGTEVVVKG	binds
DR5TAA-0013 (antibody, V domains shown) VH: QSLEESGGRLVTPGTPLTLTCTASGFTISSYHMSWVRQAPGKGLEWIGYIYAGSASTWYASWVKGRFTISKTSTTVDLKMTSLTTEDTATYFCARDAGSSYWEFNLWGPGTLVTVSS VL: LVMTQTPSSTSEPVGGTVTIKCQASQSIGSSLSWYQQTPGQPPKLLIYTASSLASSVPKRFSGSRSGTQFTLTISGVQCADAATYYCLGIDDVRRDDGFAFGGGTEVVVKG	binds
DR5TAA-0019 (antibody, V domains shown) VH: QSVEESGGRLVTPGTPLTLTCTVSGFSLSNYAMSWVRQAPGKGLEWIGIISSSGTTYYASWAKGRFTISKTSTTVDLKVTSPTTEDTATYFCARETYYGYSYAAGLWGPGTLVTVSS VL: ALVMTQTPSSVSAAVGGTVTINCQASQNIYSNLAWFQQKPGQPPKLLIYETSKLASGVPSRFSGSGSGTEFTLTISDLECDDAATYYCQSSWHSISTDCAFGGGTEVVVKG	binds
DR5TAA-0016 (antibody, V domains shown) VH: QSLEESGGRLVKPDETLTLTCTVSGFSLNNYAMSWVRQAPGKGLEWIGMINKYGTKYYATWTKGRATISKTSTTLDLEITSPTTEDTATYFCARVRYAGDDYAEWLDVWGQGILVTVSS VL: DIVMTQTASPVSAAVGGTVTINCQASQSISSSYVSWYQQKPGQPPKLLIYKASTLASGVPSRFSGSGSGTQLSLTIRGVQCDDAATYYCLYGYSDVSSSEYVFGGGTEVVVRG	binds
DR5TAA-0011 (antibody, V domains shown) VH: QSVEESGGRLVTPGTPLTLTCTVSGFSISRYAMIWVRQAPGEGLEYIGFITSDSSAYYASWAKGRFTISKTSTTVDLKMTSPTTEDTATYFCARYTYSDGTDLWGPGTLVTVSS VL: DIVMTQTPASVSEPVGGTVTIKCQASQSISTYLSWYQQKPGQPPKRLIYKASTLASGVPSRFKGSGSGTDFTLTIRDLECADAATYYCQPNSGIATYGAAFGGGTEVVVKG	binds
